Data as given in the supplement of paper PMC10849652.
Some of the results follow.

Sequences of proteins named here, by UniProt entry; tags and fusion partners are left off. A change or cut given only in a name is not applied to a line headed by its entry.
UniProt Q969X5: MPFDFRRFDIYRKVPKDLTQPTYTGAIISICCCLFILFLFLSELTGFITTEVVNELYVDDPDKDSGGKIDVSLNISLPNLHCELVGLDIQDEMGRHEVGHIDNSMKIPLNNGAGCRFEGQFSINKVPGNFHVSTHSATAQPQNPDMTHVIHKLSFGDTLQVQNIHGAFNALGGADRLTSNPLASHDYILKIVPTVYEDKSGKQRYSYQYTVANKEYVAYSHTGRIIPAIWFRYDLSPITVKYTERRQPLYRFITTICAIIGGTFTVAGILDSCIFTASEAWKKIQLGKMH
UniProt Q96HE7: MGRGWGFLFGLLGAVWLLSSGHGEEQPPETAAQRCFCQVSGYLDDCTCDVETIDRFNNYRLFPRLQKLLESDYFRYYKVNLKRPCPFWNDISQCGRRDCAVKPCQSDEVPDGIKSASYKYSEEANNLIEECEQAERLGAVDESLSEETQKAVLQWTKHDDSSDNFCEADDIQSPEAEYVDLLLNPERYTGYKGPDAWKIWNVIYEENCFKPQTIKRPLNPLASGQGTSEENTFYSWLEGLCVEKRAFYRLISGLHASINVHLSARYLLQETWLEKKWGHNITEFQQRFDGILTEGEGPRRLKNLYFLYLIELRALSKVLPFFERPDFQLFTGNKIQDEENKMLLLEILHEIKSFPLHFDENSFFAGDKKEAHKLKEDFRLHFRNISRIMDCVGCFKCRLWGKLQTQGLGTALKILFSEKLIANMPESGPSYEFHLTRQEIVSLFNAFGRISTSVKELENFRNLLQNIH
UniProt Q16134: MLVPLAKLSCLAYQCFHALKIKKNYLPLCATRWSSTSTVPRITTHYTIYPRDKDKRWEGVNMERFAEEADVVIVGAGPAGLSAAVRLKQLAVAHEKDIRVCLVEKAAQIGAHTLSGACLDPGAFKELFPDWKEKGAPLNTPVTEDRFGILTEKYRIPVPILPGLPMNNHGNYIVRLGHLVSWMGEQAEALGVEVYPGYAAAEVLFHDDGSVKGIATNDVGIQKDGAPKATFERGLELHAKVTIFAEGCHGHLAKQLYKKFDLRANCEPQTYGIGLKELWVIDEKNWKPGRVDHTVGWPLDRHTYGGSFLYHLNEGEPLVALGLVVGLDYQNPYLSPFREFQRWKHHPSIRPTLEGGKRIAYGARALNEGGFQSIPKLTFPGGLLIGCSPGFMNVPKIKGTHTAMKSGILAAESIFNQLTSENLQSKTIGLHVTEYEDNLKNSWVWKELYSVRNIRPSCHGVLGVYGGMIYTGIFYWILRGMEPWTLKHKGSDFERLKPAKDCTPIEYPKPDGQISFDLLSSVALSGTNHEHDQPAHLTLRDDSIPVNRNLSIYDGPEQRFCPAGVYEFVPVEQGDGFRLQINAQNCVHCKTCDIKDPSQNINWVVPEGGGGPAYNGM
UniProt Q01844: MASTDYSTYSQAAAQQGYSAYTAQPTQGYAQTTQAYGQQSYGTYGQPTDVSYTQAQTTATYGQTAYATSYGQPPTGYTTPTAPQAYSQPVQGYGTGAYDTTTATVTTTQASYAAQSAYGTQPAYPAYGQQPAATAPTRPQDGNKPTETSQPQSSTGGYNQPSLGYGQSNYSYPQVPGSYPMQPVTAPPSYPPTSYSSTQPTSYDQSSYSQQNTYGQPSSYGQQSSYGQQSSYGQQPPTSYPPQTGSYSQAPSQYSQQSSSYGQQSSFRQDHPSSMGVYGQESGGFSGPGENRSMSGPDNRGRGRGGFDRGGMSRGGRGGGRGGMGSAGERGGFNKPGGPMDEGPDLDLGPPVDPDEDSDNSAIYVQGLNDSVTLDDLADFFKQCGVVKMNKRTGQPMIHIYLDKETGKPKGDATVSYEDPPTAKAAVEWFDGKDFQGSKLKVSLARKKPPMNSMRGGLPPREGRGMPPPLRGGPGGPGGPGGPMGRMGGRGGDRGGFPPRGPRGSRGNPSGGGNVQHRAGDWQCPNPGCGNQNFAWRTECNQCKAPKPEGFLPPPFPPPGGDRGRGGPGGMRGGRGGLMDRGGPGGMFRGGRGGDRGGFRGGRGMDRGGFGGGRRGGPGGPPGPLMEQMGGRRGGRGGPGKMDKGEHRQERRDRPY
UniProt Q13868, whole entry, looked up: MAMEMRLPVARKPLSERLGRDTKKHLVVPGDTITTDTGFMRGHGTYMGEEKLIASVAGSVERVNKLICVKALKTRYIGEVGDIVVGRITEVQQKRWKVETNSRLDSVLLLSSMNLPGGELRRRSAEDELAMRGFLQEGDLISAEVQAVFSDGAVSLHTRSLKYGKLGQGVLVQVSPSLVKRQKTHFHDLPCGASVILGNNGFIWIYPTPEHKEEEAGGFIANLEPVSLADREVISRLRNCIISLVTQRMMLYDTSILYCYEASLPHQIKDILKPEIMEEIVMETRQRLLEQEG
UniProt Q9Y6I3: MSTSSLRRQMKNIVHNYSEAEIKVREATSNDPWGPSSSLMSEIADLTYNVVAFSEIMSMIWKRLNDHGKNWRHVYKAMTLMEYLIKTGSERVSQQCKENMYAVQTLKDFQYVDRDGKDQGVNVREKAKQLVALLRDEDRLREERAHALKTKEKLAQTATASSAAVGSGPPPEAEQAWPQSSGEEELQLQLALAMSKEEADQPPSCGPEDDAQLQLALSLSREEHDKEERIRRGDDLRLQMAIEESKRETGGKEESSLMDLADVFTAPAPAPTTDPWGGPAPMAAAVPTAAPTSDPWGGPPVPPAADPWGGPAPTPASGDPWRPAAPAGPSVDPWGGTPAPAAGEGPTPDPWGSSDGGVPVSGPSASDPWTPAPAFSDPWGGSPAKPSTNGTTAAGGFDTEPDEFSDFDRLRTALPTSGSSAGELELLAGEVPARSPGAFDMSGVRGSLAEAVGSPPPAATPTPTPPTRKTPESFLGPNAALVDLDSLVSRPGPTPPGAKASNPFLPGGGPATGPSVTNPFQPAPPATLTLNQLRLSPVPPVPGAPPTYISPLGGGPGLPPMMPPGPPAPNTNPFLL
UniProt O00471: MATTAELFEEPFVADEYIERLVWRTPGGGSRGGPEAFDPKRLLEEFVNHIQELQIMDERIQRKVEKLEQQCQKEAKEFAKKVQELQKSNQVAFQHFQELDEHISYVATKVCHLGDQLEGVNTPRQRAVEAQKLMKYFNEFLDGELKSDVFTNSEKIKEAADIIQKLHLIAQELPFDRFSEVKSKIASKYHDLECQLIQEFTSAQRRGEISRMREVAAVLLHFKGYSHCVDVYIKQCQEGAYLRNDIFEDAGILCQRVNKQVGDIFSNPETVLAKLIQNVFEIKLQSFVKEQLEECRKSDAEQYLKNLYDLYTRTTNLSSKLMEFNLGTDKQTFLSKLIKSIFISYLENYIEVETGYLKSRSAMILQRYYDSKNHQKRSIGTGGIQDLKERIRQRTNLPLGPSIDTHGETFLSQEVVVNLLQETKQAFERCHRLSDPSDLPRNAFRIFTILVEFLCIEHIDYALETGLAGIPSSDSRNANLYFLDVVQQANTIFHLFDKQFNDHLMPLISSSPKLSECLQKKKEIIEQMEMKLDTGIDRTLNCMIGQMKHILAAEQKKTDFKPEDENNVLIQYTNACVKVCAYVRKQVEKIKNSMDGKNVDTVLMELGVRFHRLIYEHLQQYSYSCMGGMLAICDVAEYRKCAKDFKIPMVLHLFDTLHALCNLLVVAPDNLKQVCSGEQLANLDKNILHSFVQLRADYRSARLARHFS
UniProt O94905: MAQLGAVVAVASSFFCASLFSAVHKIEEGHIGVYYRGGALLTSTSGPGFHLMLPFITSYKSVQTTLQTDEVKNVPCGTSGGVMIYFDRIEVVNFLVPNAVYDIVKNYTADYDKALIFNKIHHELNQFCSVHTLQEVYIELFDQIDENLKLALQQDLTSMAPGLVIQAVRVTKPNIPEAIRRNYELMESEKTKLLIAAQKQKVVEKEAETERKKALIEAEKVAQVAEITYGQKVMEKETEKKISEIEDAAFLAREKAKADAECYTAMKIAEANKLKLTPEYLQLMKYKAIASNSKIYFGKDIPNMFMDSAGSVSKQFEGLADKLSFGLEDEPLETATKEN
UniProt P12259: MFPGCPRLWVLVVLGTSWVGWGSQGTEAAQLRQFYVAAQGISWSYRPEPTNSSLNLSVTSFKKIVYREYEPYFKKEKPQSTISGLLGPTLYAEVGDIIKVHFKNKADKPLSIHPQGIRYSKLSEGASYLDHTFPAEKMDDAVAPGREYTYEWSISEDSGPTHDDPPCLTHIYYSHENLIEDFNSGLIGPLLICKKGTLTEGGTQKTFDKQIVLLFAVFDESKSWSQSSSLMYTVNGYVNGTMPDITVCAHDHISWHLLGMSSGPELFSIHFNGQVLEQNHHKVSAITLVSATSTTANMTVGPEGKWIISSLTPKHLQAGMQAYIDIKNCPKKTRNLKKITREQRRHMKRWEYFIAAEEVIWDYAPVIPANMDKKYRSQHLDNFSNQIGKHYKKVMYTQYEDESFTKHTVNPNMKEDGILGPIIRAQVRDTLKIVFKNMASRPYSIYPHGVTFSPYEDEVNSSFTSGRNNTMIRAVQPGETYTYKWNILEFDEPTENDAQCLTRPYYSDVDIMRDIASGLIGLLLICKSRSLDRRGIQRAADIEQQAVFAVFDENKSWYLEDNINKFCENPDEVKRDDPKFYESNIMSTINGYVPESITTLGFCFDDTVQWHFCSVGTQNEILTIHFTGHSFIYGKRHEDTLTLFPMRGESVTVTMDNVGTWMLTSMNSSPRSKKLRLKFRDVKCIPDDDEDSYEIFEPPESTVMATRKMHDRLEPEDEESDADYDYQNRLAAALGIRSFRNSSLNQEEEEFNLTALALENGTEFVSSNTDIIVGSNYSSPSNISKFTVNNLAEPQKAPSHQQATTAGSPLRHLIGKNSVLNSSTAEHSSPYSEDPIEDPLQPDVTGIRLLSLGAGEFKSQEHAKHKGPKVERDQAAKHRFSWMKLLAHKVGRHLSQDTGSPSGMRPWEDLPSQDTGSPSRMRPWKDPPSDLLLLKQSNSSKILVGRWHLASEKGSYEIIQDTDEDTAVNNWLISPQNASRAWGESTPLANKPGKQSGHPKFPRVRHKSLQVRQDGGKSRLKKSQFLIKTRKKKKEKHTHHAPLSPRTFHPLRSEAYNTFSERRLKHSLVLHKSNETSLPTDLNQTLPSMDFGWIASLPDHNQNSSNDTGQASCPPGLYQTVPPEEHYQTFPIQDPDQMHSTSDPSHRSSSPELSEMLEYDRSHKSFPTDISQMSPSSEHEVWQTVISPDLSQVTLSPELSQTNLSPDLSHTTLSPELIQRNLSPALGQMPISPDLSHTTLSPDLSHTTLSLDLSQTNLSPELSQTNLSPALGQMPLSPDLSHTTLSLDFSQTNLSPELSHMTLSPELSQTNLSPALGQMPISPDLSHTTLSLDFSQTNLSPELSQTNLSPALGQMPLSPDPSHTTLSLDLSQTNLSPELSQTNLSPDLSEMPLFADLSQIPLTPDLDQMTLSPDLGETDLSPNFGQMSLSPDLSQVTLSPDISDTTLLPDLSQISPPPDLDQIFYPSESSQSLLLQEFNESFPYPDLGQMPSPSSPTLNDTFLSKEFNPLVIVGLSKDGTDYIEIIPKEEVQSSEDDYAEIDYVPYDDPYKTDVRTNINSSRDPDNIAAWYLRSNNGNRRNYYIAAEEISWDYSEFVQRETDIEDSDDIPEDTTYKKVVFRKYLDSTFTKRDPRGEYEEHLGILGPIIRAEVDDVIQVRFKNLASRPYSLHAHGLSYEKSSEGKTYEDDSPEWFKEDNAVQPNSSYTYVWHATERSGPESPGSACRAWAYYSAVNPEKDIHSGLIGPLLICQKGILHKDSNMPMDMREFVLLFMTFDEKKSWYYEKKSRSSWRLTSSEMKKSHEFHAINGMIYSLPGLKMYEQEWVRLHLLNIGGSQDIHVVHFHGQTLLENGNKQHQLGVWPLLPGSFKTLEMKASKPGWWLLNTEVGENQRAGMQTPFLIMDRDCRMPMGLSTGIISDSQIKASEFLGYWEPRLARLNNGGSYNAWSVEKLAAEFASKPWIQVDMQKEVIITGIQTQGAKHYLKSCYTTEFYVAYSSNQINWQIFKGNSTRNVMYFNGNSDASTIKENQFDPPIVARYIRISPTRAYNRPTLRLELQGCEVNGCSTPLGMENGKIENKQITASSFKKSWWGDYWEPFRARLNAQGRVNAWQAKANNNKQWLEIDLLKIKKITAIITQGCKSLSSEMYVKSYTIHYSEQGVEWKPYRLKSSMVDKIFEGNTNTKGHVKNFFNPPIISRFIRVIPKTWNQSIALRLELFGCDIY
UniProt P16422: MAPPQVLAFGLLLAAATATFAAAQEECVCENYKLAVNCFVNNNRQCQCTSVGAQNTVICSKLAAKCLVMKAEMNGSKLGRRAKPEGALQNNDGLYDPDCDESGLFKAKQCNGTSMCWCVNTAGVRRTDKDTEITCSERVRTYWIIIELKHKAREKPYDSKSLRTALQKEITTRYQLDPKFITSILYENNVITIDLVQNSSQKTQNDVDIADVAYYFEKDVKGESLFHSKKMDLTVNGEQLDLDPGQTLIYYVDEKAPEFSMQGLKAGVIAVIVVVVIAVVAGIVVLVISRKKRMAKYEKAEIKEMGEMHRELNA

How the values were obtained:
Test in all cases: log2 fold change, soluble protein after heating vs DMSO (PISA); higher = thermal stabilisation; K562 cells, 10 uM, 30 min; active = over 0.2 and 3.5 SD of the protein, either way, in both replicates (recomputed)
[1] = compound: CC1=C(C=C(C=C1)NC(=O)C2=CC(=CC=C2)C(C)(C)C#N)NC3=CC4=C(C=C3)N=CN(C4=O)C
How it was run: (§1)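 For each measurement, 10 μM compound was applied for 30 min to K562 cells at 2×10^6 cells/mL. Aliquots were heated for 3 min across 48°C-58°C, pooled, and extracted in PBS with 0.5% NP-40 at 4°C; the supernatant after 21,000xg for 90 min was soluble protein. This was quantified by TMTpro 16plex LC-MS/MS with channel sums equalised, and thermal stability was reported relative to control samples from duplicates, on a log2 fold-change scale.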

[2] = compound: CC1=C(C=C(C=C1)NC(=O)C2=CC(=CC=C2)N(C)C)NC(=O)C3=CC=C(C=C3)O
How it was run: as §1

[3] = compound: CC1=CC=C(C=C1)SC2=C3C=C(SC3=CN=C2)C(=O)N
How it was run: as §1

[4] = compound: CC1=NC(=CC=C1)C2=C(N=C(N2)C(C)(C)C)C3=CC4=NC=CN=C4C=C3
How it was run: as §1

Nexturastat A = compound: CCCCN(Cc1ccc(C(=O)NO)cc1)C(=O)Nc1ccccc1 [Nexturastat A]
How it was run: as §1

vemurafenib = compound: CCCS(=O)(=O)Nc1ccc(F)c(C(=O)c2c[nH]c3ncc(-c4ccc(Cl)cc4)cc23)c1F [vemurafenib]
How it was run: as §1

[5] = compound: CCCS(=O)(=O)Nc1ccc(F)c(C(=O)c2c[nH]c3ncc(Cl)cc23)c1F
How it was run: as §1

[6] = compound: CCCc1cc(C)[nH]c(=O)c1CNC(=O)c1cc(-c2ccnc(N3CCN(C)CC3)c2)cc2c1cnn2C(C)C
How it was run: as §1

givinostat = compound: CCN(CC)Cc1ccc2cc(COC(=O)Nc3ccc(C(=O)NO)cc3)ccc2c1 [givinostat]
How it was run: as §1

barasertib = compound: CCN(CCCOc1ccc2c(Nc3cc(CC(=O)Nc4cccc(F)c4)[nH]n3)ncnc2c1)CCOP(=O)(O)O [barasertib]
How it was run: as §1

Target	log2 fold change [1]	log2 fold change [2]	log2 fold change [3]	log2 fold change [4]	log2 fold change (Nexturastat A)	log2 fold change (vemurafenib)	log2 fold change [5]	log2 fold change [6]	log2 fold change (givinostat)	log2 fold change (barasertib)
ERGIC1 (UniProt Q969X5)	inactive: 0.011	inactive: -0.013	inactive: 0.02	inactive: 0.013	inactive: 0.028	inactive: -0.018	inactive: -0.022	inactive: 0	inactive: 0.005	inactive: 0.002
EXOSC10 (UniProt Q01780)	inactive: -0.537	inactive: 0.061	inactive: -0.07	inactive: -0.123	active: 0.762	inactive: -0.221	inactive: -0.18	inactive: -0.168	inactive: 0.147	inactive: 0.036
ESYT2 isoform 2 (UniProt A0FGR8)	inactive: 0.007	inactive: -0.011	inactive: 0.003	inactive: 0.024	inactive: 0.002	inactive: 0.01	inactive: -0.016	inactive: -0.037	inactive: 0.029	inactive: 0.029
EXOSC5 (UniProt Q9NQT4)	inactive: 0.051	inactive: -0.007	inactive: 0.014	inactive: 0.002	inactive: 0.009	inactive: -0.007	inactive: -0.002	inactive: -0.004	inactive: -0.048	inactive: 0.01
EPHX2 (UniProt P34913)	inactive: 0.112	inactive: 0.129	inactive: 0.031	inactive: -0.017	inactive: 0.193	inactive: -0.012	inactive: -0.025	inactive: -0.075	inactive: -0.014	inactive: -0.029
FADS1, A0A0A0MR51	inactive: 0.09	inactive: -0.019	inactive: 0.008	inactive: 0.069	inactive: -0.006	inactive: -0.002	inactive: 0.021	inactive: -0.034	active: -0.274	inactive: 0.031
ERO1A (UniProt Q96HE7)	inactive: 0.006	inactive: 0.009	inactive: -0.024	inactive: -0.016	inactive: -0.025	inactive: -0.049	inactive: -0.022	inactive: -0.008	inactive: -0.014	inactive: -0.006
ETFDH (UniProt Q16134)	inactive: 0.023	inactive: -0.006	inactive: 0.028	inactive: 0.01	inactive: -0.05	inactive: 0	inactive: -0.001	inactive: -0.067	inactive: -0.029	inactive: 0.012
FAM136A (UniProt Q96C01)	inactive: -0.002	inactive: -0.059	inactive: 0.041	inactive: 0.063	inactive: 0.011	inactive: 0.006	inactive: 0	inactive: -0.041	inactive: 0	inactive: 0.03
ESRRA (UniProt P11474)	inactive: 0.078	inactive: 0.024	inactive: -0.041	inactive: -0.118	inactive: -0.035	inactive: 0.022	inactive: 0.05	inactive: 0.136	inactive: -0.019	inactive: 0.002
EVC2 (UniProt Q86UK5)	inactive: -0.263	inactive: -0.146	inactive: -0.006	inactive: -0.018	inactive: 0.046	inactive: -0.073	inactive: -0.054	inactive: 0.16	inactive: 0.06	inactive: -0.064
ERLIN1 (UniProt O75477)	inactive: 0.011	inactive: -0.018	inactive: 0.028	inactive: -0.01	inactive: 0.031	inactive: -0.02	inactive: 0.014	inactive: 0.065	inactive: 0.014	inactive: 0.028
EWSR1 isoform 5 (UniProt Q01844)	inactive: -0.021	inactive: 0.012	inactive: -0.054	inactive: 0.021	inactive: 0.083	inactive: 0.005	inactive: 0.019	inactive: -0.014	inactive: -0.024	inactive: -0.047
FAM114A2 (UniProt Q9NRY5)	inactive: 0.007	inactive: 0.03	inactive: 0.038	inactive: 0.022	inactive: -0.053	inactive: 0.001	inactive: 0.061	inactive: -0.058	inactive: -0.017	inactive: 0.01
ERMAP (UniProt Q96PL5)	inactive: -0.15	inactive: 0.051	inactive: -0.057	inactive: 0.061	inactive: -0.054	inactive: -0.04	inactive: -0.097	inactive: -0.166	inactive: 0.057	inactive: -0.025
EXOSC2 (UniProt Q13868)	inactive: 0.015	inactive: 0.008	inactive: 0.002	inactive: -0.017	inactive: 0.001	inactive: 0.016	inactive: -0.032	inactive: -0.056	inactive: -0.011	inactive: -0.014
EPN1 (UniProt Q9Y6I3)	inactive: -0.002	inactive: -0.059	inactive: 0.041	inactive: -0.029	inactive: -0.026	inactive: 0.05	inactive: 0.032	inactive: -0.005	inactive: 0.036	inactive: 0.021
EXO5 (UniProt Q9H790)	inactive: -0.068	–	–	–	–	–	–	–	–	–
EPPK1 (UniProt P58107)	inactive: 0.108	inactive: 0.02	inactive: 0.091	inactive: -0.134	inactive: 0.34	inactive: -0.173	inactive: -0.317	inactive: 0.135	inactive: 0.133	inactive: 0.034
EXOC5 (UniProt O00471)	inactive: 0.006	inactive: -0.022	inactive: -0.007	inactive: 0.056	inactive: 0.017	inactive: 0.046	inactive: 0.08	inactive: -0.028	inactive: 0.118	inactive: 0.031
ERVK3-1, A0A0U1RQV1	inactive: -0.041	inactive: -0.075	inactive: -0.03	inactive: 0.023	inactive: 0.811	inactive: 0.218	inactive: -0.033	inactive: -0.055	inactive: 0.011	inactive: 0.077
ERLIN2 (UniProt O94905)	inactive: -0.045	inactive: -0.024	inactive: 0.009	inactive: -0.037	inactive: 0.104	inactive: -0.062	inactive: 0.008	inactive: 0.12	inactive: 0.038	inactive: -0.003
EXOC8 (UniProt Q8IYI6)	inactive: 0.035	inactive: -0.085	inactive: 0.037	inactive: 0.016	inactive: -0.087	inactive: 0.048	inactive: 0.01	inactive: -0.091	inactive: 0.028	inactive: 0.048
ETFB (UniProt P38117)	inactive: 0.007	inactive: -0.019	inactive: -0.028	inactive: 0.044	inactive: -0.041	inactive: -0.003	inactive: -0.038	inactive: 0.03	inactive: -0.01	inactive: 0.048
EXOC7 (UniProt Q9UPT5)	inactive: -0.116	inactive: -0.057	inactive: -0.014	inactive: -0.05	inactive: 0.065	inactive: 0.032	inactive: 0.07	inactive: 0.079	inactive: 0.09	inactive: 0.036
FAM133B (UniProt Q5BKY9)	inactive: -0.023	inactive: 0.03	inactive: -0.011	inactive: 0.039	inactive: 0.056	inactive: -0.044	inactive: -0.016	inactive: -0.072	inactive: -0.033	inactive: -0.08
ERGIC2 (UniProt Q96RQ1)	inactive: 0.008	inactive: 0.016	inactive: -0.048	inactive: 0.102	inactive: -0.115	inactive: 0.019	inactive: 0.021	inactive: -0.063	inactive: 0.009	inactive: 0.019
F5 (UniProt P12259)	inactive: 0.056	inactive: 0.036	inactive: -0.027	inactive: 0.011	inactive: -0.04	inactive: 0.066	inactive: -0.016	inactive: -0.036	inactive: -0.01	inactive: 0.034
ERP44 (UniProt Q9BS26)	inactive: 0.006	inactive: 0.008	inactive: -0.008	inactive: -0.019	inactive: -0.034	inactive: -0.007	inactive: -0.045	inactive: 0.014	inactive: -0.028	inactive: 0.023
EPCAM (UniProt P16422)	inactive: 0.054	inactive: -0.066	inactive: -0.011	inactive: -0.002	inactive: -0.035	inactive: 0.018	inactive: 0.006	inactive: 0.087	inactive: 0.029	inactive: -0.025

Copied from the listing (five entries):
Target	log2 fold change [1]	log2 fold change [2]	log2 fold change [3]	log2 fold change [4]	log2 fold change (Nexturastat A)	log2 fold change (vemurafenib)	log2 fold change [5]	log2 fold change [6]	log2 fold change (givinostat)	log2 fold change (barasertib)
FAM136A (UniProt Q96C01)	inactive: -0.002	inactive: -0.059	inactive: 0.041	inactive: 0.063	inactive: 0.011	inactive: 0.006	inactive: 0	inactive: -0.041	inactive: 0	inactive: 0.03
ESRRA (UniProt P11474)	inactive: 0.078	inactive: 0.024	inactive: -0.041	inactive: -0.118	inactive: -0.035	inactive: 0.022	inactive: 0.05	inactive: 0.136	inactive: -0.019	inactive: 0.002
EVC2 (UniProt Q86UK5)	inactive: -0.263	inactive: -0.146	inactive: -0.006	inactive: -0.018	inactive: 0.046	inactive: -0.073	inactive: -0.054	inactive: 0.16	inactive: 0.06	inactive: -0.064
ERLIN1 (UniProt O75477)	inactive: 0.011	inactive: -0.018	inactive: 0.028	inactive: -0.01	inactive: 0.031	inactive: -0.02	inactive: 0.014	inactive: 0.065	inactive: 0.014	inactive: 0.028
EWSR1 isoform 5 (UniProt Q01844)	inactive: -0.021	inactive: 0.012	inactive: -0.054	inactive: 0.021	inactive: 0.083	inactive: 0.005	inactive: 0.019	inactive: -0.014	inactive: -0.024	inactive: -0.047
